The values that follow come from EP4814018A2.

These are yes or no findings as the source states them, for the method shown. Some results given as binding are weak or reduced against the parent protein; the word gives no strength.

For this assay, the target named is human transferrin receptor (human) (UniProt P02786). The assay is described as follows: SPR off-rate.

B1: antibody comprising the heavy chain variable domain of SEQ ID NO: 24 and the light chain variable domain of SEQ ID NO: 37 (antibody, V domains shown)
VH: QSMQESGPGLVKPSQTLSLTCTVSGFSLSSYAMSWIRQHPGKGLEWIGYIWSGGSTDYASWAKSRVTISKTSTTVSLKLSSVTAADTAVYYCARRYGTSYPDYGDASGFDPWGQGTLVTVSS
VL: AIQLTQSPSSLSASVGDRVTITCRASQSISSYLAWYQQKPGKAPKLLIYRASTLASGVPSRFSGSGSGTDFTLTISSLQPEDFATYYCQQNYASSNVDNTFGGGTKVEIK
Take B1: the binding entry was “binds”.
